Results reported in the supplement of paper PMC3334620.
In all, about 33,000 sequences were measured (“E-score (-0.5 to 0.5)”: median about -0.015, highest 2% from about 0.3 on). Some of the results follow.

Each sequence was assayed against T1, Abf1 (UniProt P14164) (assay: PBM E-score (8-mer binding enrichment) (E-score (-0.5 to 0.5)); higher = stronger / more preferred TF binding). Details: protein concentration: 200 nM; construct: GST-full length.
T1 sequence: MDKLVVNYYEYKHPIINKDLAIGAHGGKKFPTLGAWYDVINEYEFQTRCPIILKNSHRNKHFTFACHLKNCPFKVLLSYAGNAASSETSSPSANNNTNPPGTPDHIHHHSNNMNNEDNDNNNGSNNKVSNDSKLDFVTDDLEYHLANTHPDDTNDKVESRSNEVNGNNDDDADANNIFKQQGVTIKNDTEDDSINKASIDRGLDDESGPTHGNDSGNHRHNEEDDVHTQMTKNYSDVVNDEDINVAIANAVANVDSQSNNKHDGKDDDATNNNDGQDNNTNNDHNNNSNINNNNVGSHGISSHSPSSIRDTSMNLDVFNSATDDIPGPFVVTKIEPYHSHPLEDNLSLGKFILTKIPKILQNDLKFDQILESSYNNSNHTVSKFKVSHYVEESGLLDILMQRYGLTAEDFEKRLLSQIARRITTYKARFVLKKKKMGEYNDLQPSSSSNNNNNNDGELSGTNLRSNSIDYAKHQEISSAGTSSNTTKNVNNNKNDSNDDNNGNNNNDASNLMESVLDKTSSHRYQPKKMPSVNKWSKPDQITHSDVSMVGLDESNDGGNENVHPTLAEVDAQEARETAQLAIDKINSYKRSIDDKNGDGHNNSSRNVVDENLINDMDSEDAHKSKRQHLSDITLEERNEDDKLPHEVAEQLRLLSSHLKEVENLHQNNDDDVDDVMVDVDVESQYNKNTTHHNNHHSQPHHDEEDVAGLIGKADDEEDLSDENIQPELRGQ
In short: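 Using PURExpress in vitro transcription/translation, GST-tagged yeast transcription factors were made in full-length or DNA-binding-domain form. These were applied at about 100-200 nM to double-stranded universal all-10-mer Agilent arrays, and bound protein was detected with fluorescent anti-GST. Scans were normalised with masliner before the Universal PBM Analysis Suite assigned E-scores to ungapped eight-base words pooled with their reverse complements.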
With GGTACAAC the “PBM E-score” value was 0.153. With CTCTGCGC the “PBM E-score” value was 0.00942. With AGTATTGC the “PBM E-score” value was -0.131. AGGACGGG was tested, and the “PBM E-score” value was -0.115. In the case of TAGCGTAA, the “PBM E-score” value was -0.0339. In the case of CTAGCCTA, the “PBM E-score” value was -0.0519. For CGCCCTTC, the “PBM E-score” value was -0.295. With CCTGACGA the “PBM E-score” value was 0.214. With ATTAGATA the “PBM E-score” value was 0.189. AGCCTCCA was tested, and the “PBM E-score” value was -0.276. For CAACCAAC, the “PBM E-score” value was -0.0662. For TTCGGAAA, the “PBM E-score” value was -0.148. In the case of CCAGGCAC, the “PBM E-score” value was 0.0493. CCCTCTCG was tested, and the “PBM E-score” value was -0.249. For GAATTTCA, the “PBM E-score” value was -0.0552. For CTCATTGC, the “PBM E-score” value was -0.0922. For GGGTTCGA, the “PBM E-score” value was -0.0673. For ACATCTAC, the “PBM E-score” value was 0.114. For GGGTCAAC, the “PBM E-score” value was -0.0715. TGAGGGCA was tested, and the “PBM E-score” value was -0.268. For GAAGGAAA, the “PBM E-score” value was -0.138. With TCCTACCA the “PBM E-score” value was -0.101. For ATTCCTTG, the “PBM E-score” value was 0.0574. GCAGTTAA was tested, and the “PBM E-score” value was -0.0142. ATTGAACC was tested, and the “PBM E-score” value was -0.0857. In the case of CAAATGCG, the “PBM E-score” value was 0.117. With AATATCCC the “PBM E-score” value was 0.0982. With ATTAGGGC the “PBM E-score” value was -0.111. For AACGCTGT, the “PBM E-score” value was 0.00818. With AACGTCAG the “PBM E-score” value was -0.109. With CATCGTTC the “PBM E-score” value was 0.0962. In the case of AGCCGCAC, the “PBM E-score” value was -0.0599. With GGAGCGAC the “PBM E-score” value was 0.0672. In the case of CGTTGGGC, the “PBM E-score” value was 0.0715. For GAACTCTA, the “PBM E-score” value was -0.0122. In the case of GCTCCCCC, the “PBM E-score” value was -0.418. CCAAAAAA was tested, and the “PBM E-score” value was 0.268. In the case of AGGCTGAT, the “PBM E-score” value was -0.21. ACGCATCG was tested, and the “PBM E-score” value was 0.152. For ACCACATA, the “PBM E-score” value was 0.222. CATACGTA was tested, and the “PBM E-score” value was 0.293. In the case of GTGATCTA, the “PBM E-score” value was 0.407. In the case of TCAATTAA, the “PBM E-score” value was 0.22. In the case of ACTCTTGA, the “PBM E-score” value was 0.0206. GGGCATAA was tested, and the “PBM E-score” value was -0.0266. For GAACGTAC, the “PBM E-score” value was 0.126. For ATAACTCA, the “PBM E-score” value was 0.198. With CTCTTTAA the “PBM E-score” value was 0.0145. For TAAACGCA, the “PBM E-score” value was -0.0182. In the case of AGATGAAT, the “PBM E-score” value was -0.134. With AGGGTAAG the “PBM E-score” value was -0.00605. For GCTAGGTA, the “PBM E-score” value was -0.015. With CCGGACTA the “PBM E-score” value was -0.22. With TCCCACGA the “PBM E-score” value was 0.326. In the case of CGGCATAC, the “PBM E-score” value was 0.0158. AGGCTTAC was tested, and the “PBM E-score” value was -0.197. In the case of AAAAACGT, the “PBM E-score” value was 0.0618. AACAAATA was tested, and the “PBM E-score” value was 0.191. With ATTACACG the “PBM E-score” value was 0.161. For AAGTTGTG, the “PBM E-score” value was -0.0478. In the case of CACACGAC, the “PBM E-score” value was 0.295. For CAGCTCGA, the “PBM E-score” value was -0.191. In the case of AGTCGCCG, the “PBM E-score” value was 0.0893. With AAGTTGTC the “PBM E-score” value was 0.138. With CGGGGATC the “PBM E-score” value was -0.193. In the case of CTGTTCCC, the “PBM E-score” value was -0.155. With GAAATCAC the “PBM E-score” value was 0.322. With AAAATTCT the “PBM E-score” value was 0.061. With AGTACACG the “PBM E-score” value was 0.24. For CATACTAC, the “PBM E-score” value was 0.0808. With GGTAACAA the “PBM E-score” value was 0.177. In the case of GACGCGTA, the “PBM E-score” value was 0.026. AGAAACGG was tested, and the “PBM E-score” value was -0.0326. GCTGATTA was tested, and the “PBM E-score” value was 0.266. With ACCCCGCT the “PBM E-score” value was -0.158. For CACTCGGA, the “PBM E-score” value was 0.0541. For TACCTGCA, the “PBM E-score” value was -0.195. In the case of ACTCCTGA, the “PBM E-score” value was 0.00759. For AACCACGT, the “PBM E-score” value was 0.0317. GATAGATC was tested, and the “PBM E-score” value was 0.0955. For GAGAAAGC, the “PBM E-score” value was -0.0241. In the case of CCAGTTGA, the “PBM E-score” value was -0.0925. For AGACACTA, the “PBM E-score” value was -0.024. GATAGGGA was tested, and the “PBM E-score” value was -0.191. With ACCCAAAT the “PBM E-score” value was 0.0159. For CCGCTACC, the “PBM E-score” value was -0.132. For AATCATAA, the “PBM E-score” value was 0.206. TAAGTGCA was tested, and the “PBM E-score” value was -0.0218. ATGTGGTC was tested, and the “PBM E-score” value was 0.00542. For ATTCCAAG, the “PBM E-score” value was -0.0317. In the case of GGATGCTA, the “PBM E-score” value was -0.174. With ATGTCCCA the “PBM E-score” value was 0.136. For ATTCGCGG, the “PBM E-score” value was 0.0888. With ACATCTCC the “PBM E-score” value was -0.0911. For CCTTCGCC, the “PBM E-score” value was -0.199. ATGCTCAC was tested, and the “PBM E-score” value was 0.0338. TAGGTAAA was tested, and the “PBM E-score” value was -0.226. For CGGGTCGC, the “PBM E-score” value was -0.133. With TGTAGAAA the “PBM E-score” value was 0.00325. In the case of TCTCATAA, the “PBM E-score” value was -0.0621. For CAATTTAG, the “PBM E-score” value was 0.0307. For AAGTCTAA, the “PBM E-score” value was -0.136. For TGCTACAA, the “PBM E-score” value was 0.077. With AGCTTCCC the “PBM E-score” value was -0.162. AACCACTT was tested, and the “PBM E-score” value was -0.0232. With CCGGATTC the “PBM E-score” value was -0.228. CTCCTACA was tested, and the “PBM E-score” value was -0.194. In the case of AACCTGGA, the “PBM E-score” value was -0.0808. For CCCCTCAG, the “PBM E-score” value was -0.292. For CATACAAC, the “PBM E-score” value was -0.0666. AAACGGTG was tested, and the “PBM E-score” value was 0.129. In the case of AAACAATT, the “PBM E-score” value was 0.0212. For CTTAATGC, the “PBM E-score” value was 0.133. With CGGTATAG the “PBM E-score” value was -0.191. With CATCCTTC the “PBM E-score” value was 0.0215. TACGCCCA was tested, and the “PBM E-score” value was -0.15. With GGACGGCC the “PBM E-score” value was 0.143. With AGGGGAGC the “PBM E-score” value was -0.294. In the case of CACCGGAG, the “PBM E-score” value was -0.23. ACAAACCC was tested, and the “PBM E-score” value was -0.0208. With AACAATAT the “PBM E-score” value was 0.187. For CTAATTAA, the “PBM E-score” value was 0.155. For CAAAGTCA, the “PBM E-score” value was 0.00908. AGATGCAC was tested, and the “PBM E-score” value was 0.0654. For CTATTCGA, the “PBM E-score” value was -0.0482. CTTGCCGC was tested, and the “PBM E-score” value was -0.26. With GAAGCTTC the “PBM E-score” value was -0.121. In the case of AAAAATGC, the “PBM E-score” value was 0.12. In the case of GGTTAGCA, the “PBM E-score” value was -0.18. With GAATTCAA the “PBM E-score” value was -0.0191. For CCGAGGTA, the “PBM E-score” value was -0.0623. With GGCATCCA the “PBM E-score” value was -0.117. For GTGGAGCA, the “PBM E-score” value was 0.00893. AGCCTTAA was tested, and the “PBM E-score” value was -0.113. With AGGAGATC the “PBM E-score” value was 0.00894. In the case of AACAAGTG, the “PBM E-score” value was 0.018. With AAGGGTAC the “PBM E-score” value was 0.0349. In the case of AAGCATTG, the “PBM E-score” value was -0.0436. For GAACGGAC, the “PBM E-score” value was -0.0561. In the case of AGGAAGCC, the “PBM E-score” value was -0.326. In the case of CGACCCAC, the “PBM E-score” value was -0.117. For AATCTTCA, the “PBM E-score” value was 0.166. For CAGCACTA, the “PBM E-score” value was 0.189. AGTATTCC was tested, and the “PBM E-score” value was 0.018. With GCTCCGAA the “PBM E-score” value was -0.07. For ACACTGAT, the “PBM E-score” value was -0.0432. GTGTTTGA was tested, and the “PBM E-score” value was 0.0823. AAGTATTG was tested, and the “PBM E-score” value was 0.0723. In the case of GGAGCCGA, the “PBM E-score” value was -0.204. CCCAGTTC was tested, and the “PBM E-score” value was -0.0526. For TATTTGCA, the “PBM E-score” value was 0.128. With TGTCCACA the “PBM E-score” value was 0.00735. ACTATTTA was tested, and the “PBM E-score” value was 0.215. In the case of AATCCGCG, the “PBM E-score” value was 0.0253. CGATCGAA was tested, and the “PBM E-score” value was 0.0567. With ATGGCGCA the “PBM E-score” value was -0.0293. In the case of AGCCGGGG, the “PBM E-score” value was -0.337. With CCTACCCG the “PBM E-score” value was -0.194. With GAGTAGTA the “PBM E-score” value was 0.0591. With CCAGTACC the “PBM E-score” value was -0.00204. For CACATAGC, the “PBM E-score” value was -0.0461. CAATGGCA was tested, and the “PBM E-score” value was -0.0412. For AGCTATGC, the “PBM E-score” value was -0.237. With AACTATCC the “PBM E-score” value was -0.035. With AATTCTGT the “PBM E-score” value was -0.144. In the case of GCCGAACC, the “PBM E-score” value was -0.0821. For GGTGGGAC, the “PBM E-score” value was -0.143. AACAATTA was tested, and the “PBM E-score” value was 0.17. For CATCTGAC, the “PBM E-score” value was -0.152. With CTACTTAC the “PBM E-score” value was 0.0358. For CTACGCAC, the “PBM E-score” value was 0.121. ATTACACC was tested, and the “PBM E-score” value was -0.0602.
